Experimental findings from patent US20170142972A1, “ANTIMICROBIAL COMPOSITION INHIBITS BACTERIA AND FUNGI” (Troy Corporation, priority 2017, published 2017) are described below.

This assay has as its system Pseudomonas aeruginosa (ATCC #10145), Escherichia coli (ATCC #11229), Enterobacter aerogenes (ATCC #13048), and Alcaligenes faecalis (ATCC #25094). Description: Challenge Method for Quantifying Antibacterial Effectiveness (two 7-day cycles, mixed bacterial inoculum). The assay is classed as cell-based. Particulars: agent alone. How it is done: In order to quantify the relative antibacterial effectiveness of an antimicrobial composition, samples are prepared by adding various amounts of the antimicrobial composition to identical volumes of a sterile test material. […] Each of the samples is subjected to a two-part challenge procedure and the sample that provides acceptable anti-bacterial protection with the lowest concentration of the antimicrobial composition is identified. Each part of the anti-bacterial challenge consists of a 7-day test cycle. The parts are performed consecutively over 14 test days. […] Challenge testing is accomplished using a mixed bacterial inoculum as the contamination event. These bacteria are Pseudomonas aeruginosa (ATCC #10145), Escherichia coli (ATCC #11229), Enterobacter aerogenes (ATCC #13048), and Alcaligenes faecalis (ATCC #25094). To make the test inoculum, each type of bacteria is grown separately in nutrient broth. Just before use in the challenge test, equal volumes of the four types of bacteria are blended together to make a mixed inoculum. After incubation, both control blanks and samples containing preservative are inoculated with the mixed inoculum. […] Performance ratings of 0, 1, 2, 3 or 4 for each test sample are determined by visual inspection according to the definitions set forth below in Table 1. […]

With `CCCCCCCCCCCCCCCC[n+]1ccccc1` [CPC, cetyl pyridinium chloride], the “concentration alone required to provide the required protection against bacterial growth on Test Day 14” value (adhesive) is “more than 0.5%” and the “concentration alone required to provide the required protection against bacterial growth on Test Day 14” value (paint) is on record as “more than 0.5%”.
